Reference: PubChem BioAssay AID1508600 (Functional Genomics Laboratory (NCATS/FGL), 2020)
Hit rate of the full screen: of about 53,000 sequences, about 3,700 (7%) were called active.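 The calls were made as follows: active = gene knockdowns whose robust z-score for IL-1 alpha signal is at least 2 or at most -2, so actives lie on both sides; inactive = the rest.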 The list shows a part of the results.

Test: Components of the Cytosolic LPS Sensing Pathway: Gene Identification via Genome-wide siRNA Screen;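 also: robust z of the log signal after scaling to non-targeting control siRNA wells of the plate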
Conditions: RAW264.7 macrophages, IL-1a HTRF, actives lie on both sides, screened at 100 nM (by protocol), cells primed 5 h with Pam3CSK4 first
How it was run: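 RAW264.7; siRNA 100 nM final, RNAiMAX, 48h 37 degrees C; Pam3CSK4 5 h; LipidA + TransIT-TKO 24 h; IL-1a HTRF; CellTiter-Glo viability; robust z vs negative-control median.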

Sequence | z-score
CCACUUCUACCAUCAUUGATT against AU040320 | inactive: -0.659
CGUGUGGACUUGACAAGAUTT against Cklf | inactive: -1.34
GCCAGACCAAACCCGAAUUTT against Fbl | inactive: -0.543
CCAGGUUUUUUAACAGAGATT against Hipk1 | inactive: -0.212
CUUGUGGGUCUAUGGACGGTT against Olfr1348 | inactive: -0.195
GGAUCUUUUCCAAAGAAAUTT against Dusp10 | inactive: -0.409
GGAUCGUAGCUACAGCCAATT against Ldlrap1 | inactive: -0.397
GGACACCAUGGAAGACUCUTT against Krtap6-5 | inactive: -0.999
GGAAGACUUGAUAGAUGAATT against C4b | inactive: 0.598
GGAGGUGGAUCAAAUGGCATT against Gnrh1 | inactive: -0.667
GGACAAAGCUAUGUCUUAATT against Treh | inactive: 0.57
GGACAGGCUUACUUCCUGATT against Vwa5b2 | inactive: 0.127
CCUCUCCCUACUGUGAAAUTT against Poldip2 | inactive: 1.18
GGCAAAGUUGCCAGAUGAATT against Mettl23 | active: 2.42
GGCCCUAGUUACAACAAAATT against Vmn1r76 | inactive: -1.13
CCUUUUUUAUAUCCACUCATT against Bahcc1 | inactive: 1.22
GGCCUAGCUGUAUGUUUAGTT against Tex19.1 | inactive: 1.29
CGAAUACUUUGGAAAAUUCTT against Tfb2m | inactive: -0.187
CCCAACUCAAGCCUCGAAATT against Scpep1 | inactive: -0.257
GCAAUGCAAAAGAUGCCCUTT against Chchd7 | inactive: 0.0804
GGCCAAGAGUAAACAGAAATT against Traip | inactive: -1.03
GGAAACAACUUUUUGCUUUTT against Zfp704 | inactive: 1.43
GGGCUUGUAUCUACCAUGGTT against Strbp | active: 2.18
GGGCUGGUCAUUUACUAAGTT against Cdh22 | inactive: 1.32
GGAUAAGUCACAGGUCACUTT against Jsrp1 | inactive: -1.45
GGUUGUGAGUCAGUCUAGUTT against Tia1 | inactive: -1.55
GGGCACACCCAUGAAGACATT against Hnf1a | active: 4.58
GGCAGGAUAUGUAUUCUGATT against Tmem121b | inactive: 1.15
CCCACAACUGCAAAUUGUGTT against Olfr782 | inactive: -1.21
GGGAUAAUUGUUUCUGAUUTT against Ttc26 | inactive: 0.319

Some of the entries above, set out differently.
CCUUUUUUAUAUCCACUCATT against Bahcc1
  z-score: inactive: 1.22
CCCAACUCAAGCCUCGAAATT against Scpep1
  z-score: inactive: -0.257
